Common to all, as to assay: SEC
Test [1] concerns the target Dynactin pointed end (PE) complex (p25, p27, p62, Arp11) (UniProt Q9BTE1).
Test [2] concerns the target T1, Spindly^250-605 (human) (UniProt Q96EA4).
T1 sequence: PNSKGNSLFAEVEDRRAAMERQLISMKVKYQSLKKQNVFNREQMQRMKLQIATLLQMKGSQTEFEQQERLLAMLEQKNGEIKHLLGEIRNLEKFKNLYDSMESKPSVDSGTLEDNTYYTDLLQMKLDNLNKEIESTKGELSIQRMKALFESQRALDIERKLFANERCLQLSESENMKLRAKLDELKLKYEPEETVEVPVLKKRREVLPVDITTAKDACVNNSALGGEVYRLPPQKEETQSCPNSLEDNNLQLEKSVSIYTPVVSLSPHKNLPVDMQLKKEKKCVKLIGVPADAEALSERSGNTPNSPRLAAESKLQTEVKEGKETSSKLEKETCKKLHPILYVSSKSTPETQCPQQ

Test [3] concerns the target T2, Spindly^250-275_307-605 (human) (UniProt Q96EA4).
T2 sequence: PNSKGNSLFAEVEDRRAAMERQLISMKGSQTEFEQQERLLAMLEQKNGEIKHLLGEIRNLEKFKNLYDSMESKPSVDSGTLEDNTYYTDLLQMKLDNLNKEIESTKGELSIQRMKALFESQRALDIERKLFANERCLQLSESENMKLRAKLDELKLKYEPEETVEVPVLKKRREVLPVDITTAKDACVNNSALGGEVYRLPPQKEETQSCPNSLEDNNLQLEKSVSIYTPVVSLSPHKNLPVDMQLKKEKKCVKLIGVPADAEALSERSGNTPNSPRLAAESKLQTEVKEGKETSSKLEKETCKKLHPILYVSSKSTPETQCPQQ

Where a chain is given by its changes, count along the chain named. Names and notes keep the numbering of the source. Results are given in words; binding and its absence hold for the method and conditions named. For some assays here: Sequences can lack the tags named with a protein.

Results on seven molecules are retold here after publication doi:10.1101/2022.02.02.478874.

B1: ^mChSpindly^SM*-CC2* (F258A, R295E-K297E) (protein, UniProt Q96EA4 1-605)
chain: MEADIITNLRCRLKEAEEERLKAAQYGLQLVESQNELQNQLDKCRNEMMTMTESYEQEKYTLQREVELKSRMLESLSCECEAIKQQQKMHLEKLEEQLSRSHGQEVNELKTKIEKLKVELDEARLSEKQLKHQVDHQKELLSCKSEELRVMSERVQESMSSEMLALQIELTEMESMKTTLKEEVNELQYRQEQLELLITNLMRQVDRLKEEKEEREKEAVSYYNALEKARVANQDLQVQLDQALQQALDPNSKGNSLAAEVEDRRAAMERQLISMKVKYQSLKKQNVFNREQMQEMELQIATLLQMKGSQTEFEQQERLLAMLEQKNGEIKHLLGEIRNLEKFKNLYDSMESKPSVDSGTLEDNTYYTDLLQMKLDNLNKEIESTKGELSIQRMKALFESQRALDIERKLFANERCLQLSESENMKLRAKLDELKLKYEPEETVEVPVLKKRREVLPVDITTAKDACVNNSALGGEVYRLPPQKEETQSCPNSLEDNNLQLEKSVSIYTPVVSLSPHKNLPVDMQLKKEKKCVKLIGVPADAEALSERSGNTPNSPRLAAESKLQTEVKEGKETSSKLEKETCKKLHPILYVSSKSTPETQCPQQ
Consider B1, for which the binding entry in test [1] is recorded as “no binding”.

B2: GST-Spindly^FL (protein, UniProt Q96EA4 1-605)
chain: B1 chain with A258F, E295R, E297K
As to B2, in test [1], the binding result is given as “no binding”.

B3: mCherry-tagged full-length Spindly (^mChSpindly^FL) (protein, UniProt Q96EA4 1-605)
chain: B1 chain with A258F, E295R, E297K
On to B3, for which, in test [1], the binding entry is “no binding”.

B4: ^mChSpindly^Δ26-28 (protein, UniProt Q96EA4 1-605)
chain: MEADIITNLRCRLKEAEEERLKAAQQLVESQNELQNQLDKCRNEMMTMTESYEQEKYTLQREVELKSRMLESLSCECEAIKQQQKMHLEKLEEQLSRSHGQEVNELKTKIEKLKVELDEARLSEKQLKHQVDHQKELLSCKSEELRVMSERVQESMSSEMLALQIELTEMESMKTTLKEEVNELQYRQEQLELLITNLMRQVDRLKEEKEEREKEAVSYYNALEKARVANQDLQVQLDQALQQALDPNSKGNSLFAEVEDRRAAMERQLISMKVKYQSLKKQNVFNREQMQRMKLQIATLLQMKGSQTEFEQQERLLAMLEQKNGEIKHLLGEIRNLEKFKNLYDSMESKPSVDSGTLEDNTYYTDLLQMKLDNLNKEIESTKGELSIQRMKALFESQRALDIERKLFANERCLQLSESENMKLRAKLDELKLKYEPEETVEVPVLKKRREVLPVDITTAKDACVNNSALGGEVYRLPPQKEETQSCPNSLEDNNLQLEKSVSIYTPVVSLSPHKNLPVDMQLKKEKKCVKLIGVPADAEALSERSGNTPNSPRLAAESKLQTEVKEGKETSSKLEKETCKKLHPILYVSSKSTPETQCPQQ
As to B4, the binding result in test [1] is “no binding”.

B5: Spindly^51-250 (domain or fragment, UniProt Q96EA4 51-250)
chain: MTESYEQEKYTLQREVELKSRMLESLSCECEAIKQQQKMHLEKLEEQLSRSHGQEVNELKTKIEKLKVELDEARLSEKQLKHQVDHQKELLSCKSEELRVMSERVQESMSSEMLALQIELTEMESMKTTLKEEVNELQYRQEQLELLITNLMRQVDRLKEEKEEREKEAVSYYNALEKARVANQDLQVQLDQALQQALDP
For the molecule B5, the binding entry in test [2] is reported as “no binding”.

B6: Spindly^1-440 (domain or fragment, UniProt Q96EA4 1-440)
chain: MEADIITNLRCRLKEAEEERLKAAQYGLQLVESQNELQNQLDKCRNEMMTMTESYEQEKYTLQREVELKSRMLESLSCECEAIKQQQKMHLEKLEEQLSRSHGQEVNELKTKIEKLKVELDEARLSEKQLKHQVDHQKELLSCKSEELRVMSERVQESMSSEMLALQIELTEMESMKTTLKEEVNELQYRQEQLELLITNLMRQVDRLKEEKEEREKEAVSYYNALEKARVANQDLQVQLDQALQQALDPNSKGNSLFAEVEDRRAAMERQLISMKVKYQSLKKQNVFNREQMQRMKLQIATLLQMKGSQTEFEQQERLLAMLEQKNGEIKHLLGEIRNLEKFKNLYDSMESKPSVDSGTLEDNTYYTDLLQMKLDNLNKEIESTKGELSIQRMKALFESQRALDIERKLFANERCLQLSESENMKLRAKLDELKLKYEP
Take B6: in test [1], the binding result is given as “no binding”.

B7: Spindly^1-250 (domain or fragment, UniProt Q96EA4 1-250)
chain: MEADIITNLRCRLKEAEEERLKAAQYGLQLVESQNELQNQLDKCRNEMMTMTESYEQEKYTLQREVELKSRMLESLSCECEAIKQQQKMHLEKLEEQLSRSHGQEVNELKTKIEKLKVELDEARLSEKQLKHQVDHQKELLSCKSEELRVMSERVQESMSSEMLALQIELTEMESMKTTLKEEVNELQYRQEQLELLITNLMRQVDRLKEEKEEREKEAVSYYNALEKARVANQDLQVQLDQALQQALDP
B7: the binding result in test [1] and in test [3] was “no binding” each time.
